Measured values as given in PMC11300717.
No constants are given. Whether binding was seen depends on the method and setting. In cells and extracts the contact can be indirect. Here binding means that the protein was enriched with, or labelled near, the bait; the list need not be complete.

Protein sequences, listed by entry. Tags and fused reporters are not part of them.
UniProt Q15003: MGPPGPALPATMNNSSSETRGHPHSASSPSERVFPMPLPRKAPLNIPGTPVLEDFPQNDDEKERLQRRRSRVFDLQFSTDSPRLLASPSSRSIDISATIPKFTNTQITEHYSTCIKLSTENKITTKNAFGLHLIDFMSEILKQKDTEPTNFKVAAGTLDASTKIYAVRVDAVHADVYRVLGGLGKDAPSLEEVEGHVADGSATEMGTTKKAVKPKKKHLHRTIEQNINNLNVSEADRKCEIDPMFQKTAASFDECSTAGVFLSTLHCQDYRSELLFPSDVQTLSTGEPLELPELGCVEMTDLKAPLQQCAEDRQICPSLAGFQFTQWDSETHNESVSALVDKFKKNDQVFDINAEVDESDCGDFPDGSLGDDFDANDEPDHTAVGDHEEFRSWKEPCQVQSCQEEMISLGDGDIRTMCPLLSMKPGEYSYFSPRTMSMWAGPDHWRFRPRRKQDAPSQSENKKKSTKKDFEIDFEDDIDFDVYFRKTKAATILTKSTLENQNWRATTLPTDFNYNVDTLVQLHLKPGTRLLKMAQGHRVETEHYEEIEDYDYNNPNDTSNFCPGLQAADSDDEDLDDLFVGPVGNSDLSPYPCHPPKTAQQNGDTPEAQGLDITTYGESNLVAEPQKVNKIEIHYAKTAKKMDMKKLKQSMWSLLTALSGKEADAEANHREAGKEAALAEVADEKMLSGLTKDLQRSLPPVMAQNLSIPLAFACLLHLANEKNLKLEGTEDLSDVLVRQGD

Target: NCAPH (non-SMC condensin I complex subunit H) (human (endogenous in HeLa)) (UniProt Q15003)
Assay: affinity purification with mass spectrometry; HeLa total protein precipitated on agarose beads with anti-NCAPH antibody or IgG; SDS-PAGE, silver staining; the 50-70 kDa region that differed most was excised and analysed by mass spectrometry

B1: CCT2 (protein, UniProt P78371 1-535)
chain: MASLSLAPVNIFKAGADEERAETARLTSFIGAIAIGDLVKSTLGPKGMDKILLSSGRDASLMVTNDGATILKNIGVDNPAAKVLVDMSRVQDDEVGDGTTSVTVLAAELLREAESLIAKKIHPQTIIAGWREATKAAREALLSSAVDHGSDEVKFRQDLMNIAGTTLSSKLLTHHKDHFTKLAVEAVLRLKGSGNLEAIHIIKKLGGSLADSYLDEGFLLDKKIGVNQPKRIENAKILIANTGMDTDKIKIFGSRVRVDSTAKVAEIEHAEKEKMKEKVERILKHGINCFINRQLIYNYPEQLFGAAGVMAIEHADFAGVERLALVTGGEIASTFDHPELVKLGSCKLIEEVMIGEDKLIHFSGVALGEACTIVLRGATQQILDEAERSLHDALCVLAQTVKDSRTVYGGGCSEMLMAHAVTQLANRTPGKEAVAMESYAKALRMLPTIIADNAGYDSADLVAQLRAAHSEGNTTAGLDMREGTIGDMAILGITESFQVKRQVLLSAAEAAEVILRVDNIIKAAPRKRVPDHHPC
In the case of B1, the binding is reported as “binds”.

B2: EPHX1 (protein, UniProt P07099 1-455)
chain: MWLEILLTSVLGFAIYWFISRDKEETLPLEDGWWGPGTRSAAREDDSIRPFKVETSDEEIHDLHQRIDKFRFTPPLEDSCFHYGFNSNYLKKVISYWRNEFDWKKQVEILNRYPHFKTKIEGLDIHFIHVKPPQLPAGHTPKPLLMVHGWPGSFYEFYKIIPLLTDPKNHGLSDEHVFEVICPSIPGYGFSEASSKKGFNSVATARIFYKLMLRLGFQEFYIQGGDWGSLICTNMAQLVPSHVKGLHLNMALVLSNFSTLTLLLGQRFGRFLGLTERDVELLYPVKEKVFYSLMRESGYMHIQCTKPDTVGSALNDSPVGLAAYILEKFSTWTNTEFRYLEDGGLERKFSLDDLLTNVMLYWTTGTIISSQRFYKENLGQGWMTQKHERMKVYVPTGFSAFPFELLHTPEKWVRFKYPKLISYSYMVRGGHFAAFEEPELLAQDIRKFLSVLERQ
B2 was tested, and the binding was “binds”.

B3: SHMT2 (protein, UniProt P34897 30-504)
chain: NAAQTQTGEANRGWTGQESLSDSDPEMWELLQREKDRQCRGLELIASENFCSRAALEALGSCLNNKYSEGYPGKRYYGGAEVVDEIELLCQRRALEAFDLDPAQWGVNVQPYSGSPANLAVYTALLQPHDRIMGLDLPDGGHLTHGYMSDVKRISATSIFFESMPYKLNPKTGLIDYNQLALTARLFRPRLIIAGTSAYARLIDYARMREVCDEVKAHLLADMAHISGLVAAKVIPSPFKHADIVTTTTHKTLRGARSGLIFYRKGVKAVDPKTGREIPYTFEDRINFAVFPSLQGGPHNHAIAAVAVALKQACTPMFREYSLQVLKNARAMADALLERGYSLVSGGTDNHLVLVDLRPKGLDGARAERVLELVSITANKNTCPGDRSAITPGGLRLGAPALTSRQFREDDFRRVVDFIDEGVNIGLEVKSKTAKLQDFKSFLLKDSETSQRLANLRQRVEQFARAFPMPGFDEH
B3 was tested, and the binding was “binds”.
